This is an account of results in the supplement of paper PMC12819154, “High-throughput peptide-centric local stability assay extends protein–ligand identification to membrane proteins, tissues and bacteria” (Nature Structural & Molecular Biology, 2025).

The chains behind the UniProt entries cited, without tags or fusion partners. Where a name states a change or a piece, a line headed by the entry shows the natural chain unless it says otherwise.
UniProt Q9CXJ4: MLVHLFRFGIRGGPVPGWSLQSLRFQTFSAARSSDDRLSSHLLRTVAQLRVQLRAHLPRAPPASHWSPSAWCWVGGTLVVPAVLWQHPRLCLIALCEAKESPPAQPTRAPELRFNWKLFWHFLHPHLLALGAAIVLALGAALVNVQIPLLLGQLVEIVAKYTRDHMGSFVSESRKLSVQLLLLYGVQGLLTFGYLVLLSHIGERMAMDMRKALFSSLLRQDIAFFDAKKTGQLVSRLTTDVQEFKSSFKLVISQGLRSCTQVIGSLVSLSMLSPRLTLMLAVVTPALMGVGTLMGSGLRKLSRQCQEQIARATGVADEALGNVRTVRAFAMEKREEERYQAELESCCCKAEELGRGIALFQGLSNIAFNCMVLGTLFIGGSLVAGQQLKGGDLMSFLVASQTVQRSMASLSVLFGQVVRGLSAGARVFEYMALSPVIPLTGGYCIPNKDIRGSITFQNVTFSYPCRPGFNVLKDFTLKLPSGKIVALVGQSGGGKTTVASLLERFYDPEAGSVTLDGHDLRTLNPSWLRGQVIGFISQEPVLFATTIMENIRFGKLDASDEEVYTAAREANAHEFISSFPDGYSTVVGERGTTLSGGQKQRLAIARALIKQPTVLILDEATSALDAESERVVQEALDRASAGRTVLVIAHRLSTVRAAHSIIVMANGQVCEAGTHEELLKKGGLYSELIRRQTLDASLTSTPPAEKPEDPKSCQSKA
UniProt Q9D0L4: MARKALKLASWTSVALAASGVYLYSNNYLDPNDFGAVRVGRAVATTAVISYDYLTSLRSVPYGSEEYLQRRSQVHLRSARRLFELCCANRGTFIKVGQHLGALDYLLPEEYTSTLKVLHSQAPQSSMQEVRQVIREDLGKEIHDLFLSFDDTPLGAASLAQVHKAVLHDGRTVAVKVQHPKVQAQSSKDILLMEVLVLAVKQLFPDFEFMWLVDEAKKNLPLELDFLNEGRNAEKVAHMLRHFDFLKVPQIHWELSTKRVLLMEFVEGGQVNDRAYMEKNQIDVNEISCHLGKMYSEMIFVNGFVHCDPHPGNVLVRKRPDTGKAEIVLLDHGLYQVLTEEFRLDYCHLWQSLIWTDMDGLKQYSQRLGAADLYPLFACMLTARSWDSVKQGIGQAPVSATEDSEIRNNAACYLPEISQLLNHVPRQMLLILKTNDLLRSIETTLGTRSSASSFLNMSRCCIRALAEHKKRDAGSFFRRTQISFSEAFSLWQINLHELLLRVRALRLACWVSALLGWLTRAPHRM
UniProt Q9CYX7: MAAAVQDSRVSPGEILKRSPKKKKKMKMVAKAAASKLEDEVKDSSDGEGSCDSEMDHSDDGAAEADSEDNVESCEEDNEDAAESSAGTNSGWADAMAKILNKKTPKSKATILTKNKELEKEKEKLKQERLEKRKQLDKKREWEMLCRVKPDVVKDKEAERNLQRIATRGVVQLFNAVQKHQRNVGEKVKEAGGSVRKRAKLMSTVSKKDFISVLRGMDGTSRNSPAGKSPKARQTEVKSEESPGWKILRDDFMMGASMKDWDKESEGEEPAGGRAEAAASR
UniProt Q9CYN2: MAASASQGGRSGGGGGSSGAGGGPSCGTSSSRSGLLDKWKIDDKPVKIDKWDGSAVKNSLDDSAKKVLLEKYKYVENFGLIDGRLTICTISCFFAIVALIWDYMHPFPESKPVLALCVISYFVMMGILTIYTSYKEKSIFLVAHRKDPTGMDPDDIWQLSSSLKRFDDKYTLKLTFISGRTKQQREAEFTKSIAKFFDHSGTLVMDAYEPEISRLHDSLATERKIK
UniProt Q9CXW2, whole entry: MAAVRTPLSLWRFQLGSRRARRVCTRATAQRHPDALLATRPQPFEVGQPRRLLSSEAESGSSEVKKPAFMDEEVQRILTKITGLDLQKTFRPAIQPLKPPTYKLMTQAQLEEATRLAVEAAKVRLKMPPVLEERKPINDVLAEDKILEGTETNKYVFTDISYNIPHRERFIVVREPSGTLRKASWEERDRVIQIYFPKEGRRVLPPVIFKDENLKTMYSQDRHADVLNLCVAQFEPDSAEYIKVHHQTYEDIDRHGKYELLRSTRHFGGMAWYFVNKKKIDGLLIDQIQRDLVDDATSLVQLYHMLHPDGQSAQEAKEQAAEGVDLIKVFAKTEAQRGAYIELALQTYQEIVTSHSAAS
UniProt Q9D009: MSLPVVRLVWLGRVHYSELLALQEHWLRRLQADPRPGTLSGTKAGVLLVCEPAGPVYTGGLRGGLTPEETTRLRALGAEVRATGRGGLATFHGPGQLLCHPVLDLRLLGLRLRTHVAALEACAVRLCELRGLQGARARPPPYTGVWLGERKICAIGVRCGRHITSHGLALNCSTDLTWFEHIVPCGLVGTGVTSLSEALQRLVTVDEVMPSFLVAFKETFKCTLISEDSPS
UniProt Q9CXD6: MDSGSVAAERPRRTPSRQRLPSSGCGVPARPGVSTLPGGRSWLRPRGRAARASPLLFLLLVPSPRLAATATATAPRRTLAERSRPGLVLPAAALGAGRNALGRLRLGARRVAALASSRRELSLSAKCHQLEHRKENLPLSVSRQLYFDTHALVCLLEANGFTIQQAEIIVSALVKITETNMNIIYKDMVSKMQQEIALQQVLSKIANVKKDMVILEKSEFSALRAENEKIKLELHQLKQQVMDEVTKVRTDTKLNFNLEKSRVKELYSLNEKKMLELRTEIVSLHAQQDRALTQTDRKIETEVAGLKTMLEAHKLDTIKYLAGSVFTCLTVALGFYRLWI
UniProt Q9CZP5: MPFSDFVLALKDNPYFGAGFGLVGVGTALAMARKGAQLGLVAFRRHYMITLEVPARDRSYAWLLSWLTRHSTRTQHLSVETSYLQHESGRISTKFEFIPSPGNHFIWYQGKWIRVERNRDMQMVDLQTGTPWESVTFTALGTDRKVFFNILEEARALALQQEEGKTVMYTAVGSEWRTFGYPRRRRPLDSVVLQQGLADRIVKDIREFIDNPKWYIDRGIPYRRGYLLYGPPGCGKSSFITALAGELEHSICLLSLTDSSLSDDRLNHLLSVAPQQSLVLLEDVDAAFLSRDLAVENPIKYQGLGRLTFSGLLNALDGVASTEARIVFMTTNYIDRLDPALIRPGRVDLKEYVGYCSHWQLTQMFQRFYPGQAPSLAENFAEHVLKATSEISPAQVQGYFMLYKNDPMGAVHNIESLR
UniProt Q9CXU0: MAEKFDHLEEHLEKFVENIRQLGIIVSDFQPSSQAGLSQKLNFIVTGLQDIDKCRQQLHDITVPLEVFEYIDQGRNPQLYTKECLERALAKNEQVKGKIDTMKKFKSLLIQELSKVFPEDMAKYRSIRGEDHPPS
UniProt Q9D0N8: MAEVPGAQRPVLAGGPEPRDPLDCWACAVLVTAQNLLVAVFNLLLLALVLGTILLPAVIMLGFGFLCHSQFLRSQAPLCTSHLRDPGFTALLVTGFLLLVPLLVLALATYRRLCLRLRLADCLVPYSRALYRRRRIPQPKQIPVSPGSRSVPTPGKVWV
UniProt Q9CWZ7: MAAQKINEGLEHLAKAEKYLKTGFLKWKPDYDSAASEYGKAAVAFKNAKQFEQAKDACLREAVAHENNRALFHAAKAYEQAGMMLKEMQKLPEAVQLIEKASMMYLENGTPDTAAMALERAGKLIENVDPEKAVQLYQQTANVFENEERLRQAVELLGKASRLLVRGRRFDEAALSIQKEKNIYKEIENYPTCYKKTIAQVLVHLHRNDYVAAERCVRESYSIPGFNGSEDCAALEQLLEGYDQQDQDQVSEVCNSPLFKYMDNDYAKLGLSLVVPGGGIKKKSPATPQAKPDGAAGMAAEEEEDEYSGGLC
UniProt Q9CX98: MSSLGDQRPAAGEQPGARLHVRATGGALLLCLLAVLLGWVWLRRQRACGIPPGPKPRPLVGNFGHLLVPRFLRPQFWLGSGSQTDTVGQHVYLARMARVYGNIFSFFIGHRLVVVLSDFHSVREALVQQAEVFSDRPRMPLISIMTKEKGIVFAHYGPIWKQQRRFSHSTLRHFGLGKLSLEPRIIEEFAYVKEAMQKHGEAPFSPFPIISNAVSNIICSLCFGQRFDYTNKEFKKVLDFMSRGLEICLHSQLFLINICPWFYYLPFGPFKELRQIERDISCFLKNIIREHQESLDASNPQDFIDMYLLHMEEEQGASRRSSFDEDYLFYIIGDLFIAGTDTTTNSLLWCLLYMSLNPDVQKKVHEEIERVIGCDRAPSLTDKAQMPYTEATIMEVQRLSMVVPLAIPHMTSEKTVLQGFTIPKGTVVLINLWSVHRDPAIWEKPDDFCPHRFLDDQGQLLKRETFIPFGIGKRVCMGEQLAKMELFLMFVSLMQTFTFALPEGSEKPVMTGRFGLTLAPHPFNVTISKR
UniProt Q9CS00: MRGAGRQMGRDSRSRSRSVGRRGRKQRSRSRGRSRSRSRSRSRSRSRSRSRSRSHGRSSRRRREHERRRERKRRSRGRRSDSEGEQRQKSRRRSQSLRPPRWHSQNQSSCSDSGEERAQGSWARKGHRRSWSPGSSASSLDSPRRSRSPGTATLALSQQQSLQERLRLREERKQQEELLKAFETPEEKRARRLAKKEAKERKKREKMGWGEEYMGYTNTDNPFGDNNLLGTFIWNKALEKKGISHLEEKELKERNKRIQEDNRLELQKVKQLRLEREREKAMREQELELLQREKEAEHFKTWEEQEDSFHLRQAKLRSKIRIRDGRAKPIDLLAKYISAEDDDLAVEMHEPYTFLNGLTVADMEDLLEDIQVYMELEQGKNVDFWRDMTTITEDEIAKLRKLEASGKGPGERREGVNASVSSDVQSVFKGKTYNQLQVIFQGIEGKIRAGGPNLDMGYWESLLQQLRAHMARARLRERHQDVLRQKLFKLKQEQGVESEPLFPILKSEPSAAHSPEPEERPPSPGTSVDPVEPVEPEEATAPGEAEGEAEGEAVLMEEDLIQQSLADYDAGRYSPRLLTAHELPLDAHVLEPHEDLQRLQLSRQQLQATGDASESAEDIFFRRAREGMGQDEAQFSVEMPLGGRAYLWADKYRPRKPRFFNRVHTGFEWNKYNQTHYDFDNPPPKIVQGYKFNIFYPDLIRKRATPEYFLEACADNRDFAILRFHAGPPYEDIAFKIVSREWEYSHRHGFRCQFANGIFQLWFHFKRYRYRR
UniProt Q9CXA2: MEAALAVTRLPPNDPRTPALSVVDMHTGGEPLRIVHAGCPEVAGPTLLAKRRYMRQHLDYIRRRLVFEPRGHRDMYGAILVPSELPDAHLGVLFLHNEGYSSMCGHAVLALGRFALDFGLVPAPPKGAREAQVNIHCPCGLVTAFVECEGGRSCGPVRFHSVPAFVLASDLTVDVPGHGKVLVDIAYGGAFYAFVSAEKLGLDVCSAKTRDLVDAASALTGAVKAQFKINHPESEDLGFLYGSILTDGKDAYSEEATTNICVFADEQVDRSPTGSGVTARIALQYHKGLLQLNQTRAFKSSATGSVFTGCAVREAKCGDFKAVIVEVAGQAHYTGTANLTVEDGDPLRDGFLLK
UniProt Q9CSB4: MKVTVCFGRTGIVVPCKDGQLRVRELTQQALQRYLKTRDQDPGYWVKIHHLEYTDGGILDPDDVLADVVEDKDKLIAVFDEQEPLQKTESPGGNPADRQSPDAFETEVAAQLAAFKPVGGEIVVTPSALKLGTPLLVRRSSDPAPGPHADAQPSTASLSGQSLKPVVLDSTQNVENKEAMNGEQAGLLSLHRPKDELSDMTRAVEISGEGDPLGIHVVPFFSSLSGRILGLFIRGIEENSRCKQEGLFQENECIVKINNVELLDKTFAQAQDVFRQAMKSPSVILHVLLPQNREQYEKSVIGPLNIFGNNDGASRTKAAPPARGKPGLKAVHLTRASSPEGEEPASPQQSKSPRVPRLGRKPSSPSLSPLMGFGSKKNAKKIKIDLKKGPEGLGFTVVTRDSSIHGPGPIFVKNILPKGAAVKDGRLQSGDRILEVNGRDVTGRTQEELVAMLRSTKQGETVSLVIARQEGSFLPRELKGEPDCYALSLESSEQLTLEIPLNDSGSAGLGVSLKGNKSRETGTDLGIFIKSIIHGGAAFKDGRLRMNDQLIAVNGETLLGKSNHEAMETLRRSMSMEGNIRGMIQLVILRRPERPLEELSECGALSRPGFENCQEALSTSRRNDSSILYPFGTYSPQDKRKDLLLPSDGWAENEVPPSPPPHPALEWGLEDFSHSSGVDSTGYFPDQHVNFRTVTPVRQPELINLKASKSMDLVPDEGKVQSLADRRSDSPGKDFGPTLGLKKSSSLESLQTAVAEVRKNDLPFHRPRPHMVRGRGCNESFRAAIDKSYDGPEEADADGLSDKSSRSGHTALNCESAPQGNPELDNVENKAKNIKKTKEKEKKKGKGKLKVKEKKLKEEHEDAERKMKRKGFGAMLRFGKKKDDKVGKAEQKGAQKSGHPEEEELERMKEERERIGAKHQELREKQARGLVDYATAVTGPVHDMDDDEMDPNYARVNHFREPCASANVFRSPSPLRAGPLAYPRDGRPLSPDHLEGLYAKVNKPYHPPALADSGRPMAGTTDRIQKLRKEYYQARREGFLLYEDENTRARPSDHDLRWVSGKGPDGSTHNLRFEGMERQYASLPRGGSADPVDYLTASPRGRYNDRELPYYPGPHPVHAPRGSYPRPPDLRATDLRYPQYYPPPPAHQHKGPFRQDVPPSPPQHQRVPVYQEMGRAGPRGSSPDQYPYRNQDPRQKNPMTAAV

This is one part of the list. Small differences around the control level are noise.

Compound in this test: CN[C@@H]1C[C@H]2O[C@@](C)([C@@H]1OC)n1c3ccccc3c3c4c(c5c6ccccc6n2c5c31)C(=O)NC4 [staurosporine]
Kind of test: log2 fold change of tryptic peptide abundance, ligand vs vehicle (limited proteolysis) (log2 ratio); higher = more trypsin-susceptible (destabilized). As to conditions: ligand concentration: 20 uM; sample: mouse liver crude lysate; replicate design: treated separately.

Consider “UniProt Q9CX53 (peptide sequence: GYSPEDLEEK, peptide start residue: 92)”, for which the log2 fold change was -0.205. As for “UniProt Q9CZ96 (peptide sequence: IEEEQSK, peptide start residue: 178)”, the log2 fold change was -0.236. With “UniProt Q9CY57 (peptide sequence: QPMPVNIR, peptide start residue: 31)”, the log2 fold change came to 0.195. To “UniProt Q9CXJ4 (peptide sequence: FGKLDASDEEVYTAAR, peptide start residue: 553)” belongs -0.474; to “UniProt Q9D0L4 (peptide sequence: VLHSQAPQSSMQEVR, peptide start residue: 117)”, -0.645. Turning to “UniProt Q9D023 (peptide sequence: KLRPLYNHPAGPR, peptide start residue: 27)”, the log2 fold change was -0.152. “UniProt Q9CYX7 (peptide sequence: LMSTVSKK, peptide start residue: 201)”: the log2 fold change was -0.27. Turning to “UniProt Q9CYU6 (peptide sequence: ASLLPLTEDMK, peptide start residue: 402)”, the log2 fold change was 0.0907.

Turning to “UniProt Q9CYN2 (peptide sequence: SIFLVAHR, peptide start residue: 138)”, the log2 fold change amounted to 0.449. Consider “UniProt Q9CXS4 (peptide sequence: AQHTFCKRCGVQSFYTPR, peptide start residue: 188)”, for which the log2 fold change is -0.235. As to “UniProt Q9CZN8 (peptide sequence: NPAAHCGIVGFKPSYGLVSR, peptide start residue: 195)”, the log2 fold change was -0.384.

Turning to “UniProt Q9CRB9 (peptide sequence: KQDAFYK, peptide start residue: 136)”, the log2 fold change is -0.195. To “UniProt Q9CXW2 (peptide sequence: TMYSQDR, peptide start residue: 216)” belongs -0.506.

Take “UniProt Q9D0B1 (peptide sequence: RAPHFCPVCLR, peptide start residue: 106)”: the log2 fold change is -0.25. On to “UniProt Q9CZ28 (peptide sequence: GVGAGAIAKK, peptide start residue: 5)”, for which the log2 fold change is -0.196. To “UniProt Q9CWR2 (peptide sequence: AVAPLRPGELLFR, peptide start residue: 20)” belongs -0.231. Then “UniProt Q9CVB6 (peptide sequence: ELQAHGADELLKR, peptide start residue: 66)”, with -0.593; and “UniProt Q9D009 (peptide sequence: GGLTPEETTR, peptide start residue: 63)”, with 0.0461; and “UniProt Q9D0Z3 (peptide sequence: LAHQVMVR, peptide start residue: 235)”, with 0.164. On to “UniProt Q9CXD6 (peptide sequence: KENLPLSVSR, peptide start residue: 134)”, for which the log2 fold change was -0.0946. Turning to “UniProt Q9CZP5 (peptide sequence: EFIDNPK, peptide start residue: 207)”, the log2 fold change was -0.335.

With “UniProt Q9CYC6 (peptide sequence: LYIIPGVPK, peptide start residue: 174)”, the log2 fold change is -0.391. On to “UniProt Q9CXU0 (peptide sequence: LNFIVTGLQDIDKCR, peptide start residue: 41)”, for which the log2 fold change was -0.326.

As for “UniProt Q9CZD3 (peptide sequence: ELALQPKDDIVDR, peptide start residue: 99)”, the log2 fold change was -0.215. To “UniProt Q9D0N8 (peptide sequence: QIPVSPGSR, peptide start residue: 141)” belongs 0.225; to “UniProt Q9CWZ7 (peptide sequence: TIAQVLVHLHRNDYVAAER, peptide start residue: 197)”, 0.551. In the case of “UniProt Q9CWX2 (peptide sequence: FFFSNQGR, peptide start residue: 260)”, the log2 fold change was -0.304.

Take “UniProt Q9CR86 (peptide sequence: DRSPSPLR, peptide start residue: 29)”: the log2 fold change was -0.139. To “UniProt Q9CX98 (peptide sequence: PLVGNFGHLLVPR, peptide start residue: 58)” belongs 1.07; to “UniProt Q9CS00 (peptide sequence: GISHLEEK, peptide start residue: 242)”, -0.181. Then “UniProt Q9CXA2 (peptide sequence: FALDFGLVPAPPKGAR, peptide start residue: 114)”, with 0.149; and “UniProt Q9CWS4 (peptide sequence: VHLQDTR, peptide start residue: 515)”, with -0.312. To “UniProt Q9CSB4 (peptide sequence: GPDGSTHNLR, peptide start residue: 1063)” belongs -0.817. Consider “UniProt Q9CZH3 (peptide sequence: VLLGQDEPLIHVFAK, peptide start residue: 66)”, for which the log2 fold change was found to be 0.314.

As for “UniProt Q9CY62 (peptide sequence: HELPTDDDSYEEHKKDK, peptide start residue: 130)”, the log2 fold change was determined as 0.211.
